In PMC11290141:
For at least one entry, the source does not settle the construct or the ends of the probe. At least one verdict rests on a figure or table, not on a statement of the authors.

What follows are sequences tested on GST-TaSPL7A (Triticum aestivum) (assay: EMSA). Details: LightShift Chemiluminescent EMSA Kit (Thermo 20148), 1 ug GST-TaSPL7A, room temperature, 20 min, native PAGE; salt and pH not stated; recombinant protein; protein details: GST; label: 5' biotin.

Binding result, binds:
AAAATCCGGAGATTCGCACGTACGATCGTTCGACACGTCGACGCCCGG (double strand) [P1-1 (VRN1 promoter)]
AGCGGTTCAGACTGGTACACACACACGGTACGCGAACGAGAGCGACAC (double strand) [P4]
AGTAGTACTGTAGTAATAAATCGCCCGTAGGAGTACCACTGGTAATGTG (double strand) [P5]
CCCTTCTTCTAGGCCTAGGGTACAGTAGAATATTATGAAAGGAAAAAT (double strand) [P1-2 (VRN1 promoter)]
TCAGCGGAAATACTCTCTCGTACGTGTGTGGAGGCAAATCCAACTTC (double strand) [P3]
